Measurements published in PMC3871008.
Like-named read-outs stand apart in the source and are kept apart here. These are yes or no findings as the source states them, for the method shown. Binding seen in cells or lysates may run through a third protein. Some results given as binding are weak or reduced against the parent protein; the word gives no strength.

Sequences of proteins named here, by UniProt entry; tags and fusion partners are left off.
UniProt Q13950: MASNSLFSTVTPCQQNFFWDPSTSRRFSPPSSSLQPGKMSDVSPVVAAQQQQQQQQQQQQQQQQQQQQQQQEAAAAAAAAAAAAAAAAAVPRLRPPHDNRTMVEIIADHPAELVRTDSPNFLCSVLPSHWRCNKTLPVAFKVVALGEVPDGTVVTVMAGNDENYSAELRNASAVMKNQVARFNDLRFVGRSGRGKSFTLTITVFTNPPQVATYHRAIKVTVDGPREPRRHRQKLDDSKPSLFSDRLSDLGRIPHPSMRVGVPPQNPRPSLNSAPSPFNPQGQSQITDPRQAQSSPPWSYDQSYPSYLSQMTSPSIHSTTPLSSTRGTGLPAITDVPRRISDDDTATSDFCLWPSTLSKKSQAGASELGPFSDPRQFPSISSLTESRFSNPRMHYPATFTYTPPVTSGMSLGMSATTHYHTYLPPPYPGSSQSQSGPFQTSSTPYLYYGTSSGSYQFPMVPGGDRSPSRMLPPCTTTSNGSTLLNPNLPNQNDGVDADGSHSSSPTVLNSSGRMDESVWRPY
UniProt P84022: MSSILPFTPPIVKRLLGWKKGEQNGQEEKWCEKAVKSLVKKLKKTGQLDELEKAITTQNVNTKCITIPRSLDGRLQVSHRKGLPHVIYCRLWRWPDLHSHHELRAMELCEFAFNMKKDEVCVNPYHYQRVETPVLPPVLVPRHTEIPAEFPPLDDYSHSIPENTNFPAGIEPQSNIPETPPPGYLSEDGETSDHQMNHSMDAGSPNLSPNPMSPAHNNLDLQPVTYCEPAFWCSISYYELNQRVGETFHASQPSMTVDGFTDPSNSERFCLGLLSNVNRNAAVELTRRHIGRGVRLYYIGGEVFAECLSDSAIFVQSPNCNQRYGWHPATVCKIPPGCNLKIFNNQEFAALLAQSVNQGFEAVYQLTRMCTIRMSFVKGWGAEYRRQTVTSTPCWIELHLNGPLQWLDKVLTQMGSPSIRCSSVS

Key:
Test in all cases: co-IP; endogenous proteins from MCF10 whole cell lysates; immunoprecipitated with anti-WWOX, anti-SMAD3, anti-RUNX2 or rabbit IgG on Protein A/G beads; lysis and wash buffer with Tris-HCl pH 7.4, 100 mM NaF, 10 mM EDTA, 1% NP-40, 0.5% TritonX-100; blotted with anti-WWOX and anti-SMAD3
[1] = molecular target: T1, WW domain-containing oxidoreductase (WWOX), endogenous (human (endogenous in MCF10)) (UniProt Q9NZC7)
T1 sequence: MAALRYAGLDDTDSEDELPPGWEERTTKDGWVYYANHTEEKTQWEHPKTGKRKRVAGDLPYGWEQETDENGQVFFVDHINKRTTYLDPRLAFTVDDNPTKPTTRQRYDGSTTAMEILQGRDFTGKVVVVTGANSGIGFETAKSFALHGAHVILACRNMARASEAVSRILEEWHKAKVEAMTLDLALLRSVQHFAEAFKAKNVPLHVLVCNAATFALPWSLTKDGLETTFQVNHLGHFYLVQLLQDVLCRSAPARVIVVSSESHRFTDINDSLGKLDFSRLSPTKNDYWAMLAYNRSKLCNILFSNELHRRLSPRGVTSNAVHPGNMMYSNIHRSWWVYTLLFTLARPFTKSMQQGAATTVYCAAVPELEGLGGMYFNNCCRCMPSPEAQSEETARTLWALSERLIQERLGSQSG

[2] = molecular target: RUNX2, endogenous (human (endogenous in MCF10)) (UniProt Q13950)
[3] = molecular target: RUNX2, endogenous (human (endogenous in MCF10)) (UniProt Q13950); remark: listed apart in the source

With “SMAD3, endogenous (from UniProt P84022 1-425)” the binding [1] was “binds” and the binding [2] was “binds”.

B1: WW domain-containing oxidoreductase (WWOX), endogenous (protein, UniProt Q9NZC7 1-414)
chain: MAALRYAGLDDTDSEDELPPGWEERTTKDGWVYYANHTEEKTQWEHPKTGKRKRVAGDLPYGWEQETDENGQVFFVDHINKRTTYLDPRLAFTVDDNPTKPTTRQRYDGSTTAMEILQGRDFTGKVVVVTGANSGIGFETAKSFALHGAHVILACRNMARASEAVSRILEEWHKAKVEAMTLDLALLRSVQHFAEAFKAKNVPLHVLVCNAATFALPWSLTKDGLETTFQVNHLGHFYLVQLLQDVLCRSAPARVIVVSSESHRFTDINDSLGKLDFSRLSPTKNDYWAMLAYNRSKLCNILFSNELHRRLSPRGVTSNAVHPGNMMYSNIHRSWWVYTLLFTLARPFTKSMQQGAATTVYCAAVPELEGLGGMYFNNCCRCMPSPEAQSEETARTLWALSERLIQERLGSQSG
B1 was tested, and the binding [3] was “binds”.
